Experimental data: patent US20090074774A1, “Fgfr binding peptides” (priority 2004, published 2009)
These are yes or no findings as the source states them, for the method shown. A result given as binding can be weak or reduced; the word gives no strength.

Target: recombinant FGFR1 Ig modules 2, 3 (expressed in Drosophila S2 cells) (Homo sapiens (Human))
Test: SPR (BIAcoreX), FGFR Ig modules 2, 3 amine-coupled to CM5 chip, peptide injected, blank flow cell subtracted

binding	Binder
binds	SIDRVEPYSSTAQVQFD [ABL peptide (…, SEQ ID NO: 2), A strand-loop-B strand of NCAM F3, 1 module]
binds	KAEWKSLGEEAWHSK [CDL peptide (…, SEQ ID NO: 1), C strand-loop-D strand of NCAM F3, 1 module]
